Record: PubChem BioAssay AID504764 (Drosophila RNAi Screening Center, 2011)
Aim: 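Genes whose knock-down alters Notch-dependent transcription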 (primary screen). System: Drosophila Kc167 cells. Reagents: long dsRNA against Drosophila genes. Timing: about 5 days (4 days dsRNA, then 24 h after transfection). Challenge: transfection of constitutively active membrane-tethered Notch lacking the extracellular domain, read 24 h later. Measurement: 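Firefly luciferase from an E(spl)m3 reporter with active Notch, plus control-promoter and uninduced reporter wells for normalisation; unnormalised counts, duplicate wells a and b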. Reading the numbers: induced reporter light, run 1, well a and induced reporter light, run 1, well b: higher = more light from the Notch target reporter with active Notch; control promoter light, run 1, well a and control promoter light, run 1, well b: higher = more light from the viral control promoter (cell number, transfection, viability); uninduced reporter light, run 1, well a: higher = more light from the Notch target reporter without active Notch. Hit rule: 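Hit if the duplicate-averaged log2 ratio of induced to control-promoter light gives a plate-wise z beyond ±2, or induced to uninduced beyond ±1.8; weak-control or discordant-duplicate wells dropped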. Meaning of the calls: active = modifier hit (raised or lowered Notch signal); inactive = not a hit.
In all, the deposit lists about 22,000 reagents; shown is a random part of those with a known target gene and a result. In the full data, 403 (1.9%) were called active. 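Unnormalised raw counts per well; ratio z-scores behind the hit calls and whether each hit raises or lowers signal are not deposited.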 Entries without a mark were called inactive. Reagents against one gene are numbered here. No sequences are given here. Not stated in the record: the amount of reagent.

predicted target	reagent no.	induced reporter light, run 1, well a	induced reporter light, run 1, well b	control promoter light, run 1, well a	control promoter light, run 1, well b	uninduced reporter light, run 1, well a
CG32388	1	2.55e5	1.81e5	2.27e5	2.15e5	15445
Dhc62B (Dynein heavy chain at 62B)	1	1.60e5	1.23e5	1.72e5	1.36e5	6760
CG34459	1	1.26e5	1.10e5	1.30e5	1.56e5	10675
Cyp12b2 (Cytochrome P450 12b2)	1	77180	79265	79655	66160	7005
tai (taiman)	1	12925	18255	10070	8378	4745
tai (taiman)	2	1.24e5	1.31e5	67120	84965	19710
Mctp (Multiple C2 domain and transmembrane region protein)	1	69870	70340	95095	97525	7060
LSm1 (Like Sm 1)	1	45605	39815	49495	43675	2900
CG6044	1	1.90e5	2.14e5	2.07e5	1.80e5	17600
MCTS1 (Malignant T cell amplified sequence 1)	1	1.87e5	1.79e5	2.39e5	2.00e5	14950
CG9667	1	27305	29550	25670	19795	2690
Irc (Immune-regulated catalase)	1	2.57e5	1.95e5	2.49e5	2.98e5	21565
Hex-t1 (Hexokinase testis 1)	1	1.52e5	1.59e5	1.92e5	1.92e5	11755
Sox21a	1	1.55e5	1.62e5	1.92e5	1.71e5	6915
CG5194	1	1.46e5	1.51e5	84195	37660	11795
CG34024 (retired record)	1	2.27e5	1.99e5	1.87e5	1.43e5	16240
Ret (Ret oncogene)	1	1.89e5	1.84e5	1.51e5	1.49e5	14300
Ret (Ret oncogene)	2	52725	42410	47700	60000	2460
CG30403	1	1.53e5	1.16e5	2.97e5	2.92e5	11250
Leash	1	70565	83145	86470	61475	3980
elav (embryonic lethal abnormal vision)	1	1.80e5	1.83e5	2.12e5	2.04e5	15080
Cpr (Cytochrome P450 reductase)	1	74805	61675	60575	56275	5005
CG14450	1	72555	80180	82490	75930	2310
CG10621	1	83840	47635	47575	60505	3040
CG9084	1	90770	1.37e5	1.64e5	1.65e5	13160
CG16922 (retired record)	1	15335	14555	31150	26910	3838
CG42582 (retired record)	1	2.02e5	1.69e5	3.11e5	2.68e5	13770
CG14760	1	1.90e5	1.68e5	1.92e5	1.75e5	17460
Spn85F (Serpin 85F)	1	2.16e5	1.62e5	3.15e5	3.33e5	13480
Ctr9	1	70440	69605	1.03e5	1.03e5	4835
CG13933	1	95485	96590	1.59e5	2.13e5	8325
Vajk4	1	1.14e5	1.03e5	1.69e5	2.24e5	10320
Vajk4	2	1.23e5	84390	1.23e5	1.36e5	8805
CG2157	1	1.17e5	1.37e5	3.26e5	2.05e5	9320

Part of the list above in another layout.
predicted target,reagent no.,"induced reporter light, run 1, well a","induced reporter light, run 1, well b","control promoter light, run 1, well a","control promoter light, run 1, well b","uninduced reporter light, run 1, well a"
Ret (Ret oncogene),2,52725,42410,47700,60000,2460
CG30403,1,1.53e5,1.16e5,2.97e5,2.92e5,11250
Leash,1,70565,83145,86470,61475,3980
elav (embryonic lethal abnormal vision),1,1.80e5,1.83e5,2.12e5,2.04e5,15080
